{"source": "patent EP3964511A1", "about": "“BIOORTHOGONAL CHOLESTEROL PROBE AND USES THEREOF” (Universidad del País Vasco/Euskal Herriko Unibertsitatea, priority 2020, dated 2022)", "tested_on": "plasma membrane of live SH-SY5Y cells", "assay": "LIESS-FCS diffusion measurement in the plasma membrane", "format": "cell-based, human", "data": [{"compound": "CC(CCCN=[N+]=[N-])C1CCC2C3CC=C4CC(O)CCC4(C)C3CCC12C", "note": "(centres unmarked) [chol-N3, 17-(5-azidopentan-2-yl)-10,13-dimethyl-2,3,4,7,8,9,10,11,12,13,14,15,16,17-tetradecahydro-1H-cyclopenta[a]phenanthren-3-ol]", "values": [{"measurement": "Drat (ratio between the diffusion coefficient by STED and confocal)", "setting": "500 nm region where resident time is smaller in STED than in confocal mode (free diffusion)", "result": "≈ 1"}, {"measurement": "Drat (ratio between the diffusion coefficient by STED and confocal)", "setting": "zone where transit time is similar for STED and confocal spots (trapped state)", "result": "< 1"}]}]}
